Values from PubChem BioAssay AID1508597 (Cure First, 2020).
Screen: 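Survival screen with siRNA in ovarian cancer cells derived from patients, with or without rucaparib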 (primary screen). System: human ovarian carcinoma lines grown from tumours: OCI-P5x (papillary serous) and OCI-C5x (clear cell). Reagent: siRNA pool against human genes, 1.25 pmol siRNA per well. Time to read-out: 72 h or 96 h, depending on the cell culture. Challenge: rucaparib 20 µM (about IC30) or vehicle, present until read-out. Rucaparib or vehicle: Vehicle. Cell line: OCI-C5x (clear cell). Detection: 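ATP luminescence measured at 72 or 96 h according to the culture, then normalised and expressed as percent viability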. Direction: viability, normalised: higher = more viable cells remaining. Hit rule: 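a well counts as a hit if its normalised viability is under 80 percent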. Calls: active = viability under 80%; inactive = viability 80% or more.
This is an unselected part of the about 2,100 reagents, under one of the conditions tested. 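Calls flag viability under 80% in either arm, not effects specific to rucaparib; the reference for percent is not stated.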 A number with no mark means an inactive call. A reagent listed more than once was tested more than once; the source does not tell the runs apart. Reagent sequences are not shown. The record does not give: the 100% reference.

Gene	technical replicate	viability, normalised (%)
MASTL	1	55.5 (active)
MASTL	2	66.9 (active)
MASTL	3	44.9 (active)
FNTB	1	38.5 (active)
FNTB	2	49.6 (active)
FNTB	3	53.3 (active)
GRK7	1	104
GRK7	2	83.8
GRK7	3	66.3 (active)
IKZF1	1	71.1 (active)
IKZF1	2	33 (active)
IKZF1	3	70.9 (active)
GADD45A	1	64.4 (active)
GADD45A	2	71.1 (active)
GADD45A	3	73.7 (active)
MIER2	1	48.5 (active)
MIER2	2	46.4 (active)
MIER2	3	52.7 (active)
HCK	1	64 (active)
HCK	1	75.7 (active)
HCK	2	53.3 (active)
HCK	2	71 (active)
HCK	3	61.7 (active)
HCK	3	63.1 (active)

Laid out differently: entries from further up
Gene | technical replicate | viability, normalised (%)
MASTL | 2 | 66.9 (active)
MASTL | 3 | 44.9 (active)
